Record: PubChem BioAssay AID1259289 (Sanger Institute, 2017)

Purpose: 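Kinase-wide silencing tested with three anchor drugs to reveal synergistic lethal pairs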 (primary screen)
Cells: human LS513 colorectal cancer cells
Reagent: siRNA pool against human genes
Challenge: anchor drug BYL719 at 1 µM, cetuximab at 5 µg/ml or trametinib at 10 nM, or DMSO vehicle alone; exposure time not given
Measured: 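Cell survival as a fraction of the non-targeting pool, replicate means; robust z-score for silencing alone under DMSO; synergy score for each of BYL719, cetuximab and trametinib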
Direction: robust z-score, siRNA alone (DMSO): higher = more viable cells; strongly negative means essential
Rule for the call: 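a gene counts as active if its DMSO-only robust z-score falls under -3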
Calls: active = essential (knock-down alone); inactive = not essential
In all, the deposit lists 794 reagents; shown is a random part of them. 16 of all reagents (2%) count as active. 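Active marks cell loss from silencing alone; drug synergy shows only in the synergy scores, not the calls.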 Further read-outs or replicates are left out here. No sequences are given here. Not stated in the record: the amount of reagent, the time to read-out.

target	robust z-score, siRNA alone (DMSO)	outcome
STK40	0.561	inactive
CDKN1C	0.561	inactive
MAST3	0.561	inactive
AURKB	-1.16	inactive
MAP3K19	-0.597	inactive
NAGK	-2.14	inactive
STK26	0.561	inactive
PRKAG1	0.561	inactive
DDR1	-0.884	inactive
PKN2	0.561	inactive
GUCY2C	0.561	inactive
ULK3	0.561	inactive
CDKN2C	0.561	inactive
PRKCSH	0.561	inactive
LMTK2	-0.154	inactive
MAGI1	-1.74	inactive
PRKCB	-0.686	inactive
CDK5R1	0.561	inactive
EPHA6	-4.42	active
CDC7	-1.88	inactive
CRIM1	0.561	inactive
PIK3R2	0.561	inactive
SF3B1	-4.98	active
PRPS2	0.561	inactive
EFNA3	0.561	inactive
GALK2	0.155	inactive
FLT3	0.187	inactive
CDK9	-0.0413	inactive
FN1	0.561	inactive
MAPKAPK5	-0.308	inactive
EPHA7	0.561	inactive
MAP4K3	0.561	inactive
FASTK	0.561	inactive
PASK	0.561	inactive
MED12	0.494	inactive
VRK3	0.561	inactive
PIK3CG	0.561	inactive
CTNNB1	-3.83	active
PANK1	0.561	inactive
XYLB	0.561	inactive
KDR	0.561	inactive
APC	-0.368	inactive
PCBP1	0.561	inactive
IP6K1	0.561	inactive
TBX3	0.561	inactive
PAPSS2	0.561	inactive
HK2	-0.667	inactive
CDK13	0.561	inactive
TAOK3	0.561	inactive
CIT	-1.86	inactive
SRPK2	0.561	inactive
ATP23	0.561	inactive
FCSK	-0.503	inactive
ARAF	0.561	inactive
BRSK1	0.561	inactive
PCK2	0.561	inactive
MAP2K3	0.561	inactive
CDKN1B	-0.255	inactive
NRAS	0.561	inactive
PKIB	0.561	inactive
MPP1	0.336	inactive
EPHA5	0.561	inactive
TSSK3	0.561	inactive

Ordered by “robust z-score, siRNA alone (DMSO)” (high to low): 9 of the entries above.
target	robust z-score, siRNA alone (DMSO)	outcome
TAOK3	0.561	inactive
SRPK2	0.561	inactive
ATP23	0.561	inactive
ARAF	0.561	inactive
BRSK1	0.561	inactive
PCK2	0.561	inactive
MAP2K3	0.561	inactive
FCSK	-0.503	inactive
CIT	-1.86	inactive
